PubChem BioAssay AID1259424, University of Nebraska Medical Center – 2018
Aim: 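Seek colon cancer survival genes behaving like KSR1, using a six-gene signature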 (primary screen). System: human HCT116 colon cancer cells. Reagent: siRNA pool against human genes, 50 nM. Measurement: 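Six signature mRNAs by branched-DNA multiplex assay, scaled to two housekeeping genes and non-targeting median, log2; matched to mean KSR1 knockdown profile by Pearson correlation and euclidean distance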. Scale: mean correlation with KSR1 profile: higher = expression change more like KSR1 knockdown.
The whole screen tested about 14,000 reagents; below is a part drawn at random. 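Higher correlation or smaller distance means closer resemblance to KSR1 loss; control wells, including KSR1 knockdowns, recur on many plates.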 A reagent listed more than once was tested more than once; the source does not tell the runs apart. Further read-outs or replicates are left out here. Not given: the time to read-out.

Silencing of AP1M2 (adaptor related protein complex 1 subunit mu 2) came out at: mean correlation with KSR1 profile 0.0703. After knock-down of PUS3 (pseudouridine synthase 3), the screen gave mean correlation with KSR1 profile 0.565. Knock-down of BARD1 (BRCA1 associated RING domain 1) gave: mean correlation with KSR1 profile 0.037. Against KDM8 (lysine demethylase 8 (putative)) the deposit lists mean correlation with KSR1 profile 0.493. NUDT3 (nudix hydrolase 3) showed mean correlation with KSR1 profile -0.643. GRK1 (G protein-coupled receptor kinase 1) showed mean correlation with KSR1 profile 0.718.

With knock-down of GRK1 (G protein-coupled receptor kinase 1) the results were mean correlation with KSR1 profile 0.431. Knock-down of AP3B2 (adaptor related protein complex 3 subunit beta 2) gave: mean correlation with KSR1 profile -0.349. Depletion of CDC73 (cell division cycle 73) gave: mean correlation with KSR1 profile -0.658. Depletion of NUMBL (NUMB like endocytic adaptor protein) gave: mean correlation with KSR1 profile -0.583. G6PC3 (glucose-6-phosphatase catalytic subunit 3) gave mean correlation with KSR1 profile -0.0401. NCS1 (neuronal calcium sensor 1) gave mean correlation with KSR1 profile -0.632.

Laid out differently: 2 of the entries above.
KDM8 (lysine demethylase 8 (putative))
- mean correlation with KSR1 profile: 0.493

NUDT3 (nudix hydrolase 3)
- mean correlation with KSR1 profile: -0.643
